## Results of single-concentration screens

Source: ChEMBL document CHEMBL3988442, “University of Dundee, Small-Polar-MMV Screening Library” (2021).

Values are the deposited “Percent Effect”, in %.
How 0% and 100% were set is not recorded. Most values in the screen are low, and negative values occur.
The compounds are a random part of those screened.
Two or more numbers in one place are separate tests of the same structure; such repeats can differ widely.

Mtb cholesterol medium: 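Phenotypic screen: M. tuberculosis growth, cholesterol and DPPC medium, 4 days; the read-out is not stated. Compounds at 50 µM. The record gives no direction; compounds that gave an IC50 in retests scored well above the rest, so higher reads as more growth inhibition. About 69,000 compounds were tested under these conditions; 0.54% (about 370) showed 50% or more at least once.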
Mtb glucose medium: 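Whole-cell growth test on Mycobacterium tuberculosis, read after 3 days in glucose-containing 7H9 medium; the read-out is not stated. Concentration: 50 µM. Direction is inferred from retests: higher values go with more growth inhibition. Of about 69,000 compounds tested this way, about 760 (1.1%) reached 50% or more in at least one test.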

compound,Mtb cholesterol medium,Mtb glucose medium
CC(NC(=O)NCc1cc(Br)cs1)c1ccccn1 (stereo not drawn),-5.397,-1.176
Cc1nc(N(C)C)nc(N(C)CCc2ccncc2)c1C,-6.277,-4.853
Cc1nc(C)n(CC2CCCN(Cc3ccc4c(c3)OCCO4)C2)n1 (stereo not drawn),-13.84,-13.94 & 1.586
Cc1occc1C(=O)N1CCOCC2(CCN(C3CCOCC3)C2)C1.O=C(O)C(F)(F)F (stereo not drawn),-19.02,12.85
Cc1nc(C)n(CC2CN(CCCOc3ccccc3)CCO2)n1 (stereo not drawn),7.806,7.889
Cc1cnn(C2CN(Cc3nc(C(C)(C)C)no3)C2)c1,-4.091,18.23
CCn1cnnc1CNC(=O)N1CCC(C)CC1,-51.85,-36.98
Cc1nc(-c2ccccc2C)n(CC(=O)NC2CCCC2)n1,-30.82,-10.13
CC(C)Cc1cc(C(=O)NCC2CCCN(c3ccccn3)C2)on1 (stereo not drawn),7.978,-5.678
CC(C)NS(=O)(=O)c1cc(C(=O)O)cc(-n2cc3c(n2)CCC3)c1,-7.404,13.92
COC(=O)c1ccc(CNC(C)(C)c2ccccc2OC)o1,-5.182,-0.1996
Cc1cccc(NC(=O)N2CCCn3cnc(CN(C)C(C)C)c3C2)c1.O=C(O)C(F)(F)F,-46.14,-35.45
Cc1cccc(C(C(=O)N2CC(c3cccnc3)C2)N(C)C)c1 (stereo not drawn),-5.115,11.53
COc1c(CNC2CCCc3ccccc32)c(C)nn1C (stereo not drawn),21.19,22.18
Cc1cc(C2CCCN(CCC(=O)N3CCc4ccccc43)C2)n[nH]1 (stereo not drawn),2.409,-2.074
COc1ccc(Cl)cc1-c1cc(NC(=O)C2COCCO2)[nH]n1 (stereo not drawn),-3.294 & -15.85,-10.9 & 4.111
N#Cc1cccc(S(=O)(=O)CCN2CCOC2=O)c1,-17,8.57
Cc1nc(C(=O)N2CCc3c(nc(-c4ccncc4)[nH]c3=O)C2)cs1,-12.11,-26.15
O=C(NCCNc1ncccn1)N1CCCC1,-5.366,17.11
Cc1cc(F)cc(S(=O)(=O)Nc2noc(C)n2)c1,4.445,1.243 & 14.9
CN(C)C(C(=O)N1CCC(N2CCSCC2)CC1)c1ccccc1F (stereo not drawn),-2.741,-8.434 & -21.36
CCC(CO)N(Cc1ccncc1)Cc1c[nH]nc1-c1ccc(F)cc1 (stereo not drawn),7.798,-20.35
OC[C@@H]1CCCN1c1nccc(-c2c[nH]nc2-c2ccncc2)n1,-18.16,-3.263
O=C(O)C(F)(F)F.[H][C@]12CCC[C@@]1(COc1ccccn1)CN(S(C)(=O)=O)C2,-17.07,16.68
O=C(O)Cn1ccc2c(Cl)cccc21,-25.71,-29.02
Cc1ccc(N2CCCc3sc(C(=O)NCCC#N)nc32)nn1.O=C(O)C(F)(F)F,14.35,14.22 & 1.745
COc1cccc(OC2CN(C(=O)c3c(C)noc3C)C2)c1,3.634,-10.63 & -17.1
CC(C)c1noc(-c2ccc(NCC3CCCOC3)nc2)n1 (stereo not drawn),10.53,15.58
O=C(O)C(F)(F)F.[H][C@@]12COC[C@@H](CC(=O)N3CCCCO3)[C@]1([H])CN(Cc1c(C)noc1C)C2,14.93 & -4.982,1.655
Cc1noc(C)c1CN1CCc2ncnc(-c3cccnc3)c2CC1.O=C(O)C(F)(F)F.O=C(O)C(F)(F)F,21.48,-19.47
O=C(CN1CCCCC1Cn1cncn1)NCCC1=CCCCC1 (stereo not drawn),3.505,14.15
CCN(CC(=O)NC(C)C)S(=O)(=O)N1CCCCCC1,-0.5203,15.65
COc1cc(C(=O)NCC2CC2)nc2c(C)cc(F)cc12,28.36,-2.406
CC(=O)N[C@@H]1Cc2ccccc2[C@H]1Nc1nnc(C2CC2)o1,4.375,24.45
CCc1nc(C2CCCN2CC(=O)NCCc2ccsc2)no1 (stereo not drawn),-15.19,-46.24 & -2.427
CC(C)n1ccc(-c2cc(C(=O)N3CCN(C)CC3)c3ccccn23)n1.O=C(O)C(F)(F)F,-4.757,3.502 & -7.351
COc1ccc(CCCNCc2c(C)nn(C)c2N(C)C)cc1OC,-3.942,10.43
Cc1ccc(=O)n(CC2(O)CCN(Cc3cccs3)CC2)n1,4.161,-6.823
Cc1nc[nH]c1-c1nccn1CCN1CCCOC1=O,-16.3,-21.34
O=C(Nc1ccc(F)cc1)C1CCN(Cc2noc(C3CC3)n2)CC1,-5.571,4.23 & 9.619
Cc1csc(CCNC(=O)N2CCC(C(N)=O)CC2)n1,-6.744,-10.64
CC(C)(C)OC(=O)N1CCC[C@H](NCC2=CCCOC2)C1,7.646,-14.22
Cc1ccc(NC(=O)N2CCC(NC(=O)c3ccc(C)o3)CC2)cc1,-28.48,12.49
OCCN(Cc1cccnc1)c1cnc2ccccc2n1,-10.07,9.381 & 0.5416
CC(=O)Cn1cc(C#N)c(=O)c2cc(Br)ccc21,3.785,-26.48
CCc1nnc2n1CCN(Cc1nc3c(F)cccc3[nH]1)C2,-18.18,9.56
Cn1cc(NC(=O)N2CCC(OCc3ccccc3)CC2)ccc1=O,-0.1231,-12.14
COCCOc1ccccc1C(=O)NCCN(C)C(C)C,-27.9,-22.64
O=C(CNC(=O)N1CCc2c([nH]c3ccc(Cl)cc23)C1)N1CCOCC1,-19.3,-6.671
Cc1nc2[nH]cnc(Nc3cnn(C)c3)c-2n1,-6.427,-1.263
Cc1cc(-c2cnc(N3CCCC3)nc2-c2ccc(C)s2)on1,23.93,15.99
Cc1cc(C(=O)NCc2ccnc(N3CCOCC3)c2)c(C)s1,6.461,17.53
O=S(=O)(NC1CCOC1)c1ccc(C(F)(F)F)nc1 (stereo not drawn),-0.1576,5.749
Cc1ccc(C(=O)Nc2c(C(=O)N(C)C)nn(C)c2C)cc1C,4.041,24.07
O=C(O)c1ccnc(-c2ccnc(NCCc3ccc(F)cc3)n2)c1,11.42,30.96
O=C(COc1cccc(Cl)c1)N1CCOCC(O)(CN2CCCC2)C1 (stereo not drawn),-2.584,-8.554
Cc1ccc(N2CCCc3sc(C(=O)NCC4CCCO4)nc32)nn1 (stereo not drawn),-23.05,1.23
CC(=O)N1CCC(c2cncc(N3CCCC(O)C3)n2)CC1 (stereo not drawn),16.23,23.19
CC(C)c1cc(C(=O)NCc2nc(-c3ccc(F)cc3)n[nH]2)n[nH]1,11.79,21.1

For reference, 5 entries once more:

Result for CC(C)(C)OC(=O)N1CCC[C@H](NCC2=CCCOC2)C1 was Mtb cholesterol medium: 7.646%; Mtb glucose medium: -14.22%.
Result for CC(=O)N1CCC(c2cncc(N3CCCC(O)C3)n2)CC1 (stereo not drawn) was Mtb cholesterol medium: 16.23%; Mtb glucose medium: 23.19%.
Result for Cc1cc(C2CCCN(CCC(=O)N3CCc4ccccc43)C2)n[nH]1 (stereo not drawn) was Mtb cholesterol medium: 2.409%; Mtb glucose medium: -2.074%.
Result for Cc1nc(N(C)C)nc(N(C)CCc2ccncc2)c1C was Mtb cholesterol medium: -6.277%; Mtb glucose medium: -4.853%.
Result for CC(=O)Cn1cc(C#N)c(=O)c2cc(Br)ccc21 was Mtb cholesterol medium: 3.785%; Mtb glucose medium: -26.48%.